Assay results published in PubChem BioAssay AID504834 (National Center for Advancing Translational Sciences (NCATS), 2011).
Several values for one entry are separate records, joined by “and”; a condition that tells them apart may be missing. Equal entries are not always repeated. The campaign covered roughly 320,000 compounds. About 22,000 (6.9%) were called active. The inconclusive results got no clear call from the source; some entries with a clear call stand among them for comparison. The call rests on the fitted dose curve; in most records, active means well fitted inhibition curve with a large enough effect; inconclusive means small, poorly fitted or top-dose-only effect, or another doubt; inactive means no such curve, though single readings can be large or run the other way. A potency beside an inconclusive call is a rough fit, not a confirmed value.

assay: Primary qHTS for delayed death inhibitors of the malarial parasite plastid, 96 hour incubation; details: P. falciparum luciferase reporter growth; series mostly up to 28.7 µM; activity change, negative = inhibition: at the top concentration
Outline: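 Infected RBCs, 2% Hct / 0.05% parasitemia final; luciferase-reporter P. falciparum; cpd 96 h, 37 C, 5% CO2; luciferase detection reagent; luminescence.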
On the % scale 0 is the no-effect control and ±100 the full control effect; potency means the concentration at half of the fitted maximal effect.

SMILES	Potency	activity change, negative = inhibition
CCOc1ccc(S(=O)(=O)N2CCC(C(=O)NCC(=O)Nc3cccc(Cl)c3C)CC2)cc1	inconclusive: 18.5 µM [inhibitor, single point]	
CCCCOc1cc(C(=O)NCCN(CC)CC)c2ccccc2n1	active: 4.05 µM and active: 10.4 µM	
O/N=C1\CCCc2c1nc(-c1ccccc1F)n2O		inactive: 0.194%
CN(C)CC/C=C1/c2cc(F)ccc2CSc2ccc(F)cc21	inconclusive: 18.5 µM [inhibitor, single point]	
CC(=O)c1ccc(NC(=O)COC(=O)c2ccccc2N=Nc2ccc(N(C)C)cc2)cc1	inconclusive: 3.29 µM [inhibitor, full curve, poor fit]	
O=C(Nc1ccccc1)N1CCCN(c2ccc(C(F)(F)F)cc2[N+](=O)[O-])CC1	active: 10.4 µM	
Cc1nn(C)cc1/C=N/NC(=O)c1ccc2c(c1)OCO2		inactive: 49.1%
COc1ccc(CCNC(=O)/C=C/c2ccc(S(=O)(=O)N3CCOCC3)cc2)cc1	inconclusive: 11.7 µM [inhibitor, single point]	
CCN1CCN(c2ncc(C(=O)Nc3cc(Cl)c(OC)cc3OC)c3ccccc23)CC1	inconclusive: 11.7 µM [inhibitor, partial curve]	
CCOC(=O)C1=NNC(C(=O)c2ccc(Cl)cc2)C1c1ccccc1 (stereo unspecified)		inactive: -0.0327%
Cc1ccsc1C(=O)C1CCCN(CCO)C1 (stereo unspecified)	inconclusive: 10.4 µM [inhibitor, single point]	
Cc1cc(C)c2c(N)c(S(=O)c3ccc(C(C)(C)C)cc3)sc2n1 (stereo unspecified)	inconclusive: 14.7 µM [inhibitor, partial curve]	
COc1ccccc1C(CNC(=O)COc1ccccc1C)N1CCCC1 (stereo unspecified)	inconclusive: 18.5 µM [inhibitor, single point]	
CCOC(=O)C1CCCN(C(=O)c2cc(Nc3ccc(OC)c(OC)c3)nc3ccccc23)C1 (stereo unspecified)	inconclusive: 9.28 µM [inhibitor, single point]	
Cc1cc(C)nc(N2CCCC(C(=O)NCCc3cccc(F)c3)C2)n1 (stereo unspecified)	inconclusive: 18.5 µM [inhibitor, single point]	
O=C(NCc1ccccc1C(F)(F)F)C1CC(O)CN1C(=O)Nc1ccccc1 (stereo unspecified)	inconclusive: 14.7 µM [inhibitor, single point]	
CC(=O)Nc1ccc(S(=O)(=O)N(C)CC(=O)N(C)Cc2sccc2C)cc1	inconclusive: 18.5 µM [inhibitor, single point]	
CCN(CC)P(=O)(Nc1ccc([N+](=O)[O-])cc1)c1c(C)nn(CCC#N)c1NC(=O)c1ccc(Cl)cc1Cl (stereo unspecified)	active: 7.38 µM	
CC(C)(C)NCc1cc(Br)ccc1OC1CCCC1	inconclusive: 18.5 µM [inhibitor, single point]	
COc1ccccc1Nc1ccc(Nc2ccccc2OC)nn1	inconclusive: 9.28 µM [inhibitor, partial curve]	
CN(C)c1ccc(NC2=C(Cl)C(=O)c3ccccc3C2=O)cc1		inactive: 18.5%
Cc1cc[n+](C2=C([O-])c3ccccc3C(=O)/C2=N\S(=O)(=O)c2cccs2)cc1C	active: 3.29 µM	
COCCNC(=O)C1CCN(C(=O)c2cc3sccc3n2Cc2ccc(F)cc2)CC1		inactive: 8.07%
COc1ccc(OC)c(NC(=O)CN(C)S(=O)(=O)c2ccc(Cl)cc2)c1	inconclusive: 10.4 µM [inhibitor, single point]	

SMILES	Potency	activity change, negative = inhibition
CCn1ncc(/C=C2/SC(=S)NC2=O)c1C	inconclusive: 8.28 µM [inhibitor, single point]	
Cn1c(N2CCOCC2)cc(=O)n(C)c1=O	inconclusive: 20.8 µM [inhibitor, single point]	
CCN1CCN(C(=O)Cn2cnc3sc(C)c(S(=O)(=O)N4CCN(c5ncccn5)CC4)c3c2=O)CC1		inactive: -24.3%
O=C(CCn1cnc2ccccc2c1=O)Nc1cccc(Cl)c1		inactive: 5.32%
CCOCc1nc(N)[nH]c(=O)c1Cc1ccc(OC(C)C)cc1	inconclusive: 9.28 µM [inhibitor, single point]	
CN1CCN(c2ccc(-c3cc(O)c4ncccc4c3)cc2)CC1	active: 2.62 µM	
Cc1ccc(CNC(=O)CN2C(=O)CSc3ccc(S(=O)(=O)N4CCC(C)CC4)cc32)cc1	inconclusive: 11.7 µM [inhibitor, partial curve, poor fit]	
COc1cccc(-c2nc(NC3CCCC3)c3ccccc3n2)c1O	active: 9.28 µM	
O=C(c1cccc(Oc2c(Cl)cccc2[N+](=O)[O-])c1)N1CCCCC1	inconclusive: 18.5 µM [inhibitor, single point]	
C[C@H](NC(=O)c1nc[nH]c1C(=O)N[C@@H](C)C(=O)OCc1ccccc1)C(=O)OCc1ccccc1		inactive: 7.09%
CCOc1ccc(NS(=O)(=O)c2ccc3c(c2)CCN3C(=O)CCC(=O)O)cc1	inconclusive: 0.147 µM [inhibitor, full curve, poor fit]	
COc1ccccc1C(=O)Nc1cccc(NC(=O)c2ccccc2C)c1		inactive: -23.5%
CCN(CC(=O)NC(C)(C)C)Cc1nc2c(Br)cc(Br)cc2c(=O)[nH]1	active: 9.28 µM	
COc1cc(SC)ccc1C(=O)Nc1cc(C)c(OCC(=O)N2CCOCC2)c(C)c1	inconclusive: 10.4 µM [inhibitor, single point]	
COC(=O)N/N=C/c1c(C)nn(-c2cccc(Cl)c2)c1Cl	inconclusive: 2.33 µM [inhibitor, single point]	
O=C(COc1cccc2ccccc12)NNC(=O)CSCCO		inactive: -11.8%
COc1ccc(Cn2ccnc2SCC(=O)Nc2ccccc2OC)cc1	inconclusive: 1.31 µM [inhibitor, partial curve, poor fit]	
CCOc1cc(/C=C2\C(=O)N(Cc3ccco3)C(C)=C2C(=O)OC)ccc1O		inactive: -50.6%
O=C(CSCc1ccccc1)NC1CCSC1=O (stereo unspecified)	inconclusive: 11.7 µM [inhibitor, single point]	
Cc1ccc(C)c2[nH]c(=O)c(C(c3nnnn3Cc3ccco3)N3CCc4ccccc4C3)cc12 (stereo unspecified)	active: 6.57 µM	
O=C(Cn1ccc([N+](=O)[O-])n1)N1CCc2ccccc21		inactive: 46% [at 5.75 µM]
O=C(O)CC1S/C(=N\N=C2CCCCCCC2)N(c2ccccc2)C1=O (stereo unspecified)		inactive: -10.8%
CCOc1ccc(C(=O)Nc2ccccc2N2CCN(C(=O)c3ccccc3)CC2)cc1[N+](=O)[O-]	active: 1.65 µM	
O=C(CSc1nnc(C2CC2)n1-c1ccccc1)NCc1ccco1	inconclusive: 14.7 µM [inhibitor, partial curve, poor fit]	

SMILES	Potency	activity change, negative = inhibition
O=C(C1=C[C@@H](c2ccc(C(F)(F)F)cc2)C[C@@H](OCCCCO)O1)N1CCN(Cc2ccccc2)CC1	inconclusive: 11.7 µM [inhibitor, single point]	
CC(=O)c1sc(NC(=O)c2cc3c(C)nn(-c4ccccc4)c3s2)nc1C		inactive: 78.5%
O=C(NCCc1ccccc1)C(=O)NCC1OCCCN1S(=O)(=O)c1cccs1 (stereo unspecified)		inactive: 5.09%
COc1cc(/C=N/NC(=O)c2cccc(NC(=O)c3ccccc3C)c2)ccc1O	inconclusive: 11.7 µM [inhibitor, single point]	
CC(=O)n1cc(-c2ccncc2)c2ccccc21	inconclusive: 0.0066 µM [inhibitor, full curve, poor fit]	
Cc1ccc2c(c1)N(CCC(=O)NCCCN1CCCC1)C(=O)CO2	inconclusive: 4.15 µM [inhibitor, partial curve]	
COC(=O)c1cccc(/C=N/NC(N)=S)c1O	inconclusive: 0.37 µM [inhibitor, full curve]	
CC(C(=O)NC(=O)NC1CCCCC1)N1CCN(c2ccc(O)cc2)CC1 (stereo unspecified)	active: 16.5 µM	
COc1cc(C(=O)Oc2ccc3c(c2)OCC3=O)cc(OC)c1OC	inconclusive: 0.0023 µM [inhibitor, full curve, poor fit]	
CCOC(=O)CNC(=O)CSc1ncnc2c1cnn2-c1ccc(C)cc1	active: 8.28 µM	
Cc1ccc(N/C=C/C(=O)c2cccs2)cc1	inconclusive: 16.5 µM [inhibitor, single point]	
CC1(C)Cc2nc(N)c(C(=O)NCCO)cc2CO1	inconclusive: 14.7 µM [inhibitor, single point]	
COc1cccc(Nc2nc(N)c([N+](=O)[O-])c(NCc3ccccc3)n2)c1	active: 11.7 µM	
O=C(Nc1ccc(C(=O)N2CCOCC2)cc1)c1cccc(Br)c1	inconclusive: 10.4 µM [inhibitor, partial curve]	
CCOCCCNC(=O)c1cc(Sc2ccc(C)cc2)nc2ccccc12		inactive: -23.4%
CC(C)CNC(=O)c1cccc(Cn2cc(Cl)cn2)c1	active: 10.4 µM	
Cc1ccc(S(=O)(=O)c2cn(Cc3ccc(F)cc3)c3cc4c(cc3c2=O)OCO4)cc1	inconclusive: 18.5 µM [inhibitor, single point]	
C/C(=C\C(=S)Nc1ccccc1)Nc1ccc2ccccc2c1	inconclusive: 10.4 µM [inhibitor, single point]	
CC(OC(=O)CNC(=O)c1ccc(Cl)c(Cl)c1)C(=O)N1CCOCC1 (stereo unspecified)	inconclusive: 13.1 µM [inhibitor, single point]	
CCOC(=O)/C=C/C(=O)Nc1ccccc1-c1ccccc1NC(=O)/C=C/C(=O)OCC	inconclusive: 11.7 µM [inhibitor, single point]	
COC(=O)Nc1ccc(S(=O)(=O)N2CCC(C(=O)N3CCCCC3C)CC2)cc1 (stereo unspecified)		inactive: -11.4%
Cc1cc(S(=O)(=O)Nc2ccc(C(=O)NCc3ccncc3)cc2)ccc1F		inactive: -1.01%
Cc1ccnc(SC2CC(=O)N(c3ccc(C(C)C)cc3)C2=O)n1 (stereo unspecified)	inconclusive: 4.65 µM [inhibitor, partial curve, poor fit]	

An excerpt of these results, in CSV form.
SMILES,Potency,"activity change, negative = inhibition"
COc1cccc(Nc2nc(N)c([N+](=O)[O-])c(NCc3ccccc3)n2)c1,active: 11.7 µM,
O=C(Nc1ccc(C(=O)N2CCOCC2)cc1)c1cccc(Br)c1,"inconclusive: 10.4 µM [inhibitor, partial curve]",
CCOCCCNC(=O)c1cc(Sc2ccc(C)cc2)nc2ccccc12,,inactive: -23.4%
CC(C)CNC(=O)c1cccc(Cn2cc(Cl)cn2)c1,active: 10.4 µM,
